Test results as given in the supplement of paper PMC11060735.
“And” between values parts separate entries of the source, which are not always exact repeats. Equal entries are not always repeated. Structures can show the parent of a compound that is named as a salt. ± gives the standard deviation of the averaged measurements. The full ranking holds about 1,800 compounds; the median of “GFP- (p16Ink4a-) cell count relative to negative-control wells” is about 0.99, and the lowest 2% start at about 0.5. This is one part of the list.

What follows are compounds tested on mouse p16Ink4a+/- lung fibroblasts (INKBRITE, bleomycin-injured) (assay: GFP- (p16Ink4a-) cell count relative to negative-control wells (fold of vehicle); higher = more p16Ink4a- cells surviving). Settings: 1 µM; 3 days.

SMILES | GFP-
Cc1ccc(C(=O)C(C)CN2CCCCC2)cc1 (centres undefined) [Tolperisone] | 1.01
Cn1c(=O)n(-c2ccc(C(C)(C)C#N)cc2)c2c3cc(-c4cnc5ccccc5c4)ccc3ncc21 [Dactolisib] | 0.74
NC(=O)c1ncn([C@@H]2O[C@H](CO)[C@@H](O)[C@H]2O)n1 [Ribavirin] | 1.01
Cc1ccnc(NS(=O)(=O)c2ccc(N)cc2)n1 [Sulfamerazine] | 1.1
Cc1cc(-n2c(=O)[nH]c(=O)n(C)c2=O)ccc1Oc1ccc(SC(F)(F)F)cc1 [Toltrazuril] | 0.887
Nc1cc(C(F)(F)F)c(-c2cc(N3CCOCC3)nc(N3CCOCC3)n2)cn1 [Buparlisib] | 0.719
CNCCC(Oc1ccc(C(F)(F)F)cc1)c1ccccc1 (centres undefined) [Fluoxetine Hydrochloride, Fluoxetine] | 1.26
O=C(CCCCCCC(=O)Nc1ccccc1)NO [Vorinostat] | 0.555 ± 0.046
CNC[C@H](O)[C@@H](O)[C@H](O)[C@H](O)CO [Meglumine] | 1.16
COc1ccc(-c2ccc3c(N4CCOCC4)nc(N4C[C@@H](C)O[C@@H](C)C4)nc3n2)cc1CO | 1.01
CC(=O)N[C@@H](CS)C(=O)O [Acetylcysteine] | 1.05
Nc1c(Br)cc(Br)cc1CN[C@H]1CC[C@H](O)CC1 [Ambroxol] | 0.981
CCCCCCCCCCCCCCCC(=O)OC1C(SC)OC(C(NC(=O)C2CC(CCC)CN2C)C(C)Cl)C(O)C1O (centres undefined) [Clindamycin palmitate HCl] | 1.05
Cc1c(Cn2c(C)nc3c(C(=O)O)cc(N4CCOCC4)cc32)cccc1C(F)(F)F | 0.878
c1cc(-c2cnn3cc(-c4ccc(N5CCNCC5)cc4)cnc23)c2cccnc2c1 | 1.08
CCN(CC)CCOC(=O)c1ccc(N)cc1 [Procaine, Novocain] | 1.1
CN1C(C(=O)Nc2ccccn2)=C(O)c2ccccc2S1(=O)=O [Piroxicam] | 0.954
CO[C@H]1O[C@@H]2O[C@]3(C)CC[C@H]4[C@H](C)CC[C@@H]([C@H]1C)[C@@]24OO3 [Artemether] | 0.98
CCCCc1nc(Cl)c(CO)n1Cc1ccc(-c2ccccc2-c2nn[nH]n2)cc1 [Losartan, Losartan Potassium] | 1.06
O=C(/C=C/c1ccc(CN(CCO)CCc2c[nH]c3ccccc23)cc1)NO [Dacinostat] | 0.556 ± 0.066
CN(C)CCOC(c1ccccc1)c1ccccc1 [Diphenhydramine] | 0.916
N=c1ccn2c(n1)O[C@H]1[C@H](O)[C@@H](CO)O[C@H]12 [Cyclocytidine HCl] | 0.619
Cn1c(=O)c2c(ncn2CC(O)CO)n(C)c1=O (centres undefined) [Dyphylline] | 1.22
C[C@]12C=CC(=O)C=C1CC[C@@H]1[C@@H]2C(=O)C[C@@]2(C)[C@H]1CC[C@]2(O)C(=O)CO [Prednisone] | 1.08
CCc1c(O)cc(O)c(C(=O)c2ccc(OCCN3CCOCC3)c(OC)c2)c1CC(=O)N(CCOC)CCOC | 0.894

Molecules listed so far containing nitrogen in an aromatic ring:
SMILES | GFP-
Cn1c(=O)n(-c2ccc(C(C)(C)C#N)cc2)c2c3cc(-c4cnc5ccccc5c4)ccc3ncc21 [Dactolisib] | 0.74
NC(=O)c1ncn([C@@H]2O[C@H](CO)[C@@H](O)[C@H]2O)n1 [Ribavirin] | 1.01
Cc1ccnc(NS(=O)(=O)c2ccc(N)cc2)n1 [Sulfamerazine] | 1.1
Cc1cc(-n2c(=O)[nH]c(=O)n(C)c2=O)ccc1Oc1ccc(SC(F)(F)F)cc1 [Toltrazuril] | 0.887
Nc1cc(C(F)(F)F)c(-c2cc(N3CCOCC3)nc(N3CCOCC3)n2)cn1 [Buparlisib] | 0.719
COc1ccc(-c2ccc3c(N4CCOCC4)nc(N4C[C@@H](C)O[C@@H](C)C4)nc3n2)cc1CO | 1.01
Cc1c(Cn2c(C)nc3c(C(=O)O)cc(N4CCOCC4)cc32)cccc1C(F)(F)F | 0.878
c1cc(-c2cnn3cc(-c4ccc(N5CCNCC5)cc4)cnc23)c2cccnc2c1 | 1.08
CN1C(C(=O)Nc2ccccn2)=C(O)c2ccccc2S1(=O)=O [Piroxicam] | 0.954
CCCCc1nc(Cl)c(CO)n1Cc1ccc(-c2ccccc2-c2nn[nH]n2)cc1 [Losartan, Losartan Potassium] | 1.06
O=C(/C=C/c1ccc(CN(CCO)CCc2c[nH]c3ccccc23)cc1)NO [Dacinostat] | 0.556 ± 0.066
N=c1ccn2c(n1)O[C@H]1[C@H](O)[C@@H](CO)O[C@H]12 [Cyclocytidine HCl] | 0.619
Cn1c(=O)c2c(ncn2CC(O)CO)n(C)c1=O (centres undefined) [Dyphylline] | 1.22

Retrieved by compound from the entries so far:
SMILES | GFP-
CNCCC(Oc1ccc(C(F)(F)F)cc1)c1ccccc1 (centres undefined) [Fluoxetine Hydrochloride, Fluoxetine] | 1.26
CO[C@H]1O[C@@H]2O[C@]3(C)CC[C@H]4[C@H](C)CC[C@@H]([C@H]1C)[C@@]24OO3 [Artemether] | 0.98

(next part)

SMILES | GFP-
COc1cc2c(cc1OC)CN(CCc1ccc(NC(=O)c3cc(OC)c(OC)cc3NC(=O)c3cnc4ccccc4c3)cc1)CC2 [Tariquidar] | 0.938
CCCCCCCCCCCCCCCC(=O)OC[C@H](O)[C@H]1OC(O)=C(O)C1=O [L-Ascorbyl 6-palmitate] | 1.1
COc1ccc(C(=O)CC(=O)c2ccc(C(C)(C)C)cc2)cc1 [Avobenzone] | 1.09
CS(=O)(=O)c1ccc(-c2cnc(N)c(C(=O)Nc3ccccc3)n2)cc1 | 0.863
C=CC(=O)Nc1cc2c(Nc3ccc(F)c(Cl)c3)ncnc2cc1OCCCN1CCOCC1 | 0.571
COc1cc(C(=O)NC2CCCNC2)cc(OC)c1OC (centres undefined) [Troxipide] | 1.03
CCO/C(O)=C1\C(COCCN)=NC(C)=C(C(=O)OC)C1c1ccccc1Cl (centres undefined) [Amlodipine] | 0.841
Cc1c(OCC(F)(F)F)ccnc1CS(=O)c1nc2ccccc2[nH]1 (centres undefined) [Lansoprazole] | 1.06
CO[C@@H](C(=O)N1Cc2[nH]nc(NC(=O)c3ccc(N4CCN(C)CC4)cc3)c2C1)c1ccccc1 [Danusertib] | 0.733 ± 0.17
OC(CC1c2ccccc2-c2cncn21)C1CCCCC1 (centres undefined) | 1.17
CCC[C@@H]1C[C@@H](C(=O)N[C@H](C(C)Cl)[C@H]2O[C@H](SC)[C@H](O)[C@@H](O)[C@H]2O)N(C)C1 (some centres undefined) [Clindamycin HCl] | 0.865 and 1.15
Cc1cc(Cl)ccc1OCCCC(=O)NO [Droxinostat] | 0.915 ± 0.22
CC[C@H]1OC(=O)[C@H](C)[C@@H](O[C@H]2C[C@@](C)(OC)[C@@H](O)[C@H](C)O2)[C@H](C)[C@@H](O[C@H]2O[C@H](C)C[C@H](N(C)C)[C@H]2O)[C@](C)(O)C[C@@H](C)C(=O)[C@H](C)[C@@H](O)[C@]1(C)O [Erythromycin] | 1.07
O=C(Nc1cccnc1)N1CCC(Cc2cccc(Oc3ccc(C(F)(F)F)cn3)c2)CC1 | 0.927
Oc1ccnc(S)n1 [2-thiouracil] | 0.987
c1cncc(CN2CCC(n3ncc4c(N5CCOCC5)nc(-c5ccc6[nH]ccc6c5)nc43)CC2)c1 | 0.82
CCOC(=O)N1c2ccc(C(F)(F)F)cc2[C@@H](N(Cc2cc(C(F)(F)F)cc(C(F)(F)F)c2)C(=O)OC)C[C@H]1CC [Torcetrapib] | 1.04
C=C1/C(=C\C=C2/CCC[C@]3(C)[C@@H]([C@H](C)CCCC(C)(C)O)CC[C@@H]23)C[C@@H](O)C[C@@H]1O [Calcitriol, DN-101] | 1.39
OCc1ccc(O[C@@H]2O[C@H](CO)[C@@H](O)[C@H](O)[C@H]2O)cc1 [Gastrodin] | 0.979
COc1cc2ncnc(Nc3ccc(F)c(Cl)c3)c2cc1OCCCN1CCOCC1 [Gefitinib] | 0.923
CC(COc1ccccc1)N(CCCl)Cc1ccccc1 (centres undefined) [Phenoxybenzamine] | 1.17
O=C(Nc1c(Cl)cncc1Cl)c1ccc(OC(F)F)c(OCC2CC2)c1 [Roflumilast] | 0.982
CC(=O)OCC(=O)[C@@]12N=C(C)O[C@@H]1C[C@H]1[C@@H]3CCC4=CC(=O)C=C[C@]4(C)[C@H]3[C@@H](O)C[C@@]12C [Deflazacort] | 1.08
CCCS(=O)(=O)Nc1ccc(F)c(C(=O)c2c[nH]c3ncc(-c4ccc(Cl)cc4)cc23)c1F [Vemurafenib] | 1.11
